Measurements reported in the supplement of paper PMC4604168 (melanoma cell lines).
The other results are listed elsewhere or left out. Single values are uncertain, as repeats are few or missing.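 The apoptosis fraction was the count of cleaved-PARP antibody-stained nuclei relative to all DNA-stained nuclei, imaged in 1,536-well plates. Screening doses were set so most cells survived, and baseline and induced cleaved-PARP levels vary greatly across cell lines.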

How the values were obtained:
Assay in all cases: cleaved PARP positive nuclei fraction relative to DMSO control; melanoma cells; higher = more apoptosis
Conditions in all cases: library dose: low library concentration; 72 h
MeWo = system: MeWo
RPMI7951 = system: RPMI7951
RVH-421 = system: RVH-421
SkMel28 = system: SkMel28
SkMel30 = system: SkMel30
SkMel5 = system: SkMel5
UACC257 = system: UACC257
UACC62 = system: UACC62
WM115 = system: WM115
WM1716 = system: WM1716
WM1745 = system: WM1745
WM3526 = system: WM3526
WM3619 = system: WM3619
WM451Lu = system: WM451Lu
SkMel2 = system: SkMel2

SMILES	cleaved PARP positive nuclei fraction (MeWo)	cleaved PARP positive nuclei fraction (RPMI7951)	cleaved PARP positive nuclei fraction (RVH-421)	cleaved PARP positive nuclei fraction (SkMel28)	cleaved PARP positive nuclei fraction (SkMel30)	cleaved PARP positive nuclei fraction (SkMel5)	cleaved PARP positive nuclei fraction (UACC257)	cleaved PARP positive nuclei fraction (UACC62)	cleaved PARP positive nuclei fraction (WM115)	cleaved PARP positive nuclei fraction (WM1716)	cleaved PARP positive nuclei fraction (WM1745)	cleaved PARP positive nuclei fraction (WM3526)	cleaved PARP positive nuclei fraction (WM3619)	cleaved PARP positive nuclei fraction (WM451Lu)	cleaved PARP positive nuclei fraction (SkMel2)
CO[C@H]1C[C@@H]2CC[C@@H](C)[C@@](O)(O2)C(=O)C(=O)N2CCCC[C@H]2C(=O)O[C@H]([C@H](C)C[C@@H]2CC[C@@H](OCCO)[C@H](OC)C2)CC(=O)[C@H](C)/C=C(\C)[C@@H](O)[C@@H](OC)C(=O)[C@H](C)C[C@H](C)/C=C/C=C/C=C/1C [everolimus] + Cc1ccc(NC(=O)c2cccc(N(C)C)c2)cc1NC(=O)c1ccc(O)cc1 [ZM336372] (first compound 0.02 µM, partner dose 2 µM)	77.3%	151%	90.7%	104%	111%	60.8%	186%	123%	504%	85.3%	121%	86.6%	150%	72.5%	
C=C(c1ccc(C(=O)O)cc1)c1cc2c(cc1C)C(C)(C)CCC2(C)C [Bexarotene] + Nc1ncn([C@H]2C[C@H](O)[C@@H](CO)O2)c(=O)n1 [decitabine] (first compound 2 µM, partner dose 0.1 µM)	67.1%	69.8%	236%	102%	67.4%			75.6%	67.1%	129%	97.7%	205%	84.6%	146%	
Cn1c(=O)n(-c2ccc(C(C)(C)C#N)cc2)c2c3cc(-c4cnc5ccccc5c4)ccc3ncc21 + CN(NC(=O)CC(=O)NN(C)C(=S)c1ccccc1)C(=S)c1ccccc1 [STA4783] (first compound 0.004 µM, partner dose 0.006 µM)	94.5%	174%	62.8%	117%	89.3%	175%	113%	207%	135%	193%	156%	59.3%	146%	58.1%	
CS(=O)(=O)CCNCc1ccc(-c2ccc3ncnc(Nc4ccc(OCc5cccc(F)c5)c(Cl)c4)c3c2)o1 [lapatinib] + C[C@]1(c2nc3c(C(N)=O)cccc3[nH]2)CCCN1 [Veliparib] (first compound 0.8 µM, partner dose 1.4 µM)	106%	301%	129%	77.4%	37.6%			150%	78.1%	36.7%	122%	82.8%	86.5%	45.4%	
CNC(=O)c1cc(Oc2ccc(NC(=O)Nc3ccc(Cl)c(C(F)(F)F)c3)cc2)ccn1 [sorafenib] + Nc1ccn([C@@H]2O[C@H](CO)[C@@H](O)C2(F)F)c(=O)n1 [gemcitabine] (first compound 0.4 µM, partner dose 0.0004 µM)	56.2%	45.3%	37.8%	149%	67%			120%	189%	66%	99.2%	82.5%	111%	76.8%	85.8%
CO[C@H]1C[C@@H]2CC[C@@H](C)[C@@](O)(O2)C(=O)C(=O)N2CCCC[C@H]2C(=O)O[C@H]([C@H](C)C[C@@H]2CC[C@@H](OCCO)[C@H](OC)C2)CC(=O)[C@H](C)/C=C(\C)[C@@H](O)[C@@H](OC)C(=O)[C@H](C)C[C@H](C)/C=C/C=C/C=C/1C [everolimus] + CC(C)CCN1c2nc(Nc3cc(F)c(O)c(F)c3)ncc2N(C)C(=O)C1C [BID1870] (first compound 0.02 µM, partner dose 0.2 µM)	35.4%	179%	108%	358%	99.3%	70%	55.9%	464%	237%	203%	108%	81.3%	152%	145%	
Cn1c(=O)n(-c2ccc(C(C)(C)C#N)cc2)c2c3cc(-c4cnc5ccccc5c4)ccc3ncc21 + CNC(=O)c1cc(Oc2ccc(NC(=O)Nc3ccc(Cl)c(C(F)(F)F)c3)cc2)ccn1 [sorafenib] (first compound 0.004 µM, partner dose 0.4 µM)	199%	71%	73.7%	145%	89%			82.3%	114%	346%	96.3%	47.6%	93.5%	83.7%	126%
Nc1ncn([C@H]2C[C@H](O)[C@@H](CO)O2)c(=O)n1 [decitabine] + O=C(O)C(=O)Nc1sc2c(c1C(=O)O)CCNC2 [TCS401] (first compound 0.1 µM, partner dose 1.66667 µM)	60.9%	76.6%	27.5%	108%	349%	310%	191%	99.1%	179%	83.5%	111%	63.8%	97.4%	34.9%	
CO[C@H]1C[C@@H]2CC[C@@H](C)[C@@](O)(O2)C(=O)C(=O)N2CCCC[C@H]2C(=O)O[C@H]([C@H](C)C[C@@H]2CC[C@@H](OCCO)[C@H](OC)C2)CC(=O)[C@H](C)/C=C(\C)[C@@H](O)[C@@H](OC)C(=O)[C@H](C)C[C@H](C)/C=C/C=C/C=C/1C [everolimus] + COCC[n+]1c2c(n(Cc3cnccn3)c1C)C(=O)c1ccccc1C2=O [YM155] (first compound 0.02 µM, partner dose 0.0004 µM)	89.6%	128%	148%	117%	178%			256%	85.7%	125%	119%	48.4%	111%	123%	
CCCS(=O)(=O)Nc1ccc(F)c(C(=O)c2c[nH]c3ncc(Cl)cc23)c1F + COc1cc2c(Oc3ccc4[nH]c(C)cc4c3F)ncnc2cc1OCCCN1CCCC1 [cediranib] (first compound 0.08 µM, partner dose 0.4 µM)	41.1%	98.4%	97.4%	107%	156%	73.6%	112%	226%	165%	35.4%	109%	72.7%	78.7%	131%	
Nc1ncn([C@H]2C[C@H](O)[C@@H](CO)O2)c(=O)n1 [decitabine] + COc1ccc(COc2ccc(Cc3cnc(N)nc3N)cc2OC)cc1 [GW2580] (first compound 0.1 µM, partner dose 1 µM)	109%	293%	154%	161%	13%	140%	252%	96%	84.8%	223%	89.8%	101%	103%	143%	
CNC(=O)c1cc(Oc2ccc(NC(=O)Nc3ccc(Cl)c(C(F)(F)F)c3)cc2)ccn1 [sorafenib] + COCC[n+]1c2c(n(Cc3cnccn3)c1C)C(=O)c1ccccc1C2=O [YM155] (first compound 0.4 µM, partner dose 0.0004 µM)	31%	61.8%	223%	39.1%	46.3%			112%	96.4%	72.4%	86.7%	139%	176%	135%	
C[C@@H](Oc1cc(-c2cnn(C3CCNCC3)c2)cnc1N)c1c(Cl)ccc(F)c1Cl [Crizotinib] + COCC[n+]1c2c(n(Cc3cnccn3)c1C)C(=O)c1ccccc1C2=O [YM155] (first compound 0.2 µM, partner dose 0.0004 µM)	23.8%	110%	74.2%	40.3%	64%			79.1%	115%	122%	103%	78.1%	85.7%	98.1%	
C=C(c1ccc(C(=O)O)cc1)c1cc2c(cc1C)C(C)(C)CCC2(C)C [Bexarotene] + C[C@@H]1CCN(C(=O)CC#N)C[C@@H]1N(C)c1ncnc2[nH]ccc12 [CP690550] (first compound 2 µM, partner dose 1 µM)	57.2%	219%	214%	76.3%	67.2%	251%	118%	58.2%	140%	155%	102%	141%	75.4%	283%	
O=C(O)c1ccc2c(c1)nc(Nc1cccc(Cl)c1)c1ccncc12 + c1cc(-c2cnn3cc(-c4ccc(OCCN5CCCCC5)cc4)cnc23)ccn1 [Dorsomorphin] (first compound 0.4 µM, partner dose 0.4 µM)	106%	63.1%	214%	63.3%	92.1%	79.3%	312%	111%	129%	59.7%	392%	234%	91.8%	77.3%	
Cc1cc(Nc2cc(N3CCN(C)CC3)nc(/C=C/c3ccccc3)n2)n[nH]1 + C=C(c1ccc(C(=O)O)cc1)c1cc2c(cc1C)C(C)(C)CCC2(C)C [Bexarotene] (first compound 0.04 µM, partner dose 2 µM)	113%	116%	60.1%	151%	87.2%			68.7%	87.7%	48.8%	110%	85%	82.9%	40.1%	29.2%
CCCS(=O)(=O)Nc1ccc(F)c(C(=O)c2c[nH]c3ncc(Cl)cc23)c1F + Cc1cc(N2CCOCC2)cc2[nH]c(-c3c(NC[C@@H](O)c4cccc(Cl)c4)cc[nH]c3=O)nc12 [BMS536924] (first compound 0.08 µM, partner dose 0.2 µM)	213%	160%	183%	35.4%	158%	76.1%	41.5%	125%	242%	87%	115%	102%	103%	33.7%	
O=C(O)c1ccc2c(c1)nc(Nc1cccc(Cl)c1)c1ccncc12 + C#Cc1cccc(Nc2ncnc3cc(OCCOC)c(OCCOC)cc23)c1 [erlotinib] (first compound 0.4 µM, partner dose 0.8 µM)	64.5%	104%	183%	126%	145%			80%	142%	52.1%	98.1%	105%	101%	110%	124%
Nc1ccn([C@@H]2O[C@H](CO)[C@@H](O)C2(F)F)c(=O)n1 [gemcitabine] + C#Cc1cccc(Nc2ncnc3cc(OCCOC)c(OCCOC)cc23)c1 [erlotinib] (first compound 0.0004 µM, partner dose 0.8 µM)	41.6%	121%	72%	154%	33.5%			291%	81.3%	94.8%	138%	35.3%	114%	176%	86.1%

Only cleaved PARP positive nuclei fraction (SkMel28) (2 entries from above):

| SMILES | cleaved PARP positive nuclei fraction (SkMel28) |
| --- | --- |
| C=C(c1ccc(C(=O)O)cc1)c1cc2c(cc1C)C(C)(C)CCC2(C)C [Bexarotene] + C[C@@H]1CCN(C(=O)CC#N)C[C@@H]1N(C)c1ncnc2[nH]ccc12 [CP690550] (first compound 2 µM, partner dose 1 µM) | 76.3% |
| CCCS(=O)(=O)Nc1ccc(F)c(C(=O)c2c[nH]c3ncc(Cl)cc23)c1F + Cc1cc(N2CCOCC2)cc2[nH]c(-c3c(NC[C@@H](O)c4cccc(Cl)c4)cc[nH]c3=O)nc12 [BMS536924] (first compound 0.08 µM, partner dose 0.2 µM) | 35.4% |
